The target in this assay is T1, murine TLR9 with C-terminal HA tag (mTLR9-HA) (mouse) (UniProt Q9EQU3).
T1 sequence: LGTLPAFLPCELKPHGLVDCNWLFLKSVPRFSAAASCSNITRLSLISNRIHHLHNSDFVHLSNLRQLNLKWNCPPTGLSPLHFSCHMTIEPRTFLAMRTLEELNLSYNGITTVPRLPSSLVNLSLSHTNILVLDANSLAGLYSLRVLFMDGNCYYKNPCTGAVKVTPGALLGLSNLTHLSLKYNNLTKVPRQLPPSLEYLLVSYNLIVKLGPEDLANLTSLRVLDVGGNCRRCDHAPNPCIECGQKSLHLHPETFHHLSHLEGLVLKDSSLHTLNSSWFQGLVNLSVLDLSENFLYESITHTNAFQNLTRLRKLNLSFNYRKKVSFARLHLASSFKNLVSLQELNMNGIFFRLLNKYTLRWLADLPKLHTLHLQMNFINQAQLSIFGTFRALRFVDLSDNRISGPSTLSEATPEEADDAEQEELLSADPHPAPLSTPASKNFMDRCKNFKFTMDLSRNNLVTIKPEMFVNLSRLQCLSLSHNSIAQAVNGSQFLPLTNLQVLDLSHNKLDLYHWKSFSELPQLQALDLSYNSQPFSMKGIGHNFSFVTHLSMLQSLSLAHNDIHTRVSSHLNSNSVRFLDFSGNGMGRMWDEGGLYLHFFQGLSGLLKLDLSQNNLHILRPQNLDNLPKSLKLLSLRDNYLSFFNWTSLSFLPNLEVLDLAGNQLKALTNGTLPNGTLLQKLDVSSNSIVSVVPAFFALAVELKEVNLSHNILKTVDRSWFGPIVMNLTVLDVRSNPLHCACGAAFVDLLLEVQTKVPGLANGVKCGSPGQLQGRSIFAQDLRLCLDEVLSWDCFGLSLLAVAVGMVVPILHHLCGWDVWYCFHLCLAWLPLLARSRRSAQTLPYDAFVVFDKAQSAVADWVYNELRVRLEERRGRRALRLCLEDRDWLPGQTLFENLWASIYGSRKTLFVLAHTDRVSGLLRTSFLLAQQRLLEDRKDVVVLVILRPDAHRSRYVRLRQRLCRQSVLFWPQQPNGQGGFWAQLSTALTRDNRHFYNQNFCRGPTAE
Description: co-IP; Immunoprecipitation of TLR9-HA with anti-HA matrix from lysates (1 mg per 1 ml) of RAW macrophage lines treated overnight with DMSO or HDSF, overnight at 4 °C, 4 washes with lysis buffer; immunoblot of UNC93B1-FLAG.

Results are given in words; binding and its absence hold for the method and conditions named. In cells and extracts the contact can be indirect. Some binding calls cover weakened binding; strength is not graded here. Where a sequence is shown, tags or fusion partners need not be part of it.

B1: UNC93B1-FLAG (protein, UniProt Q8VCW4 1-598)
chain: MEVEPPLYPVAGAAGPQGDEDRHGVPDGPEAPLDELVGAYPNYNEEEEERRYYRRKRLGVVKNVLAASTGVTLTYGVYLGLLQMQLILHYDETYREVKYGNMGLPDIDSKMLMGINVTPIAALLYTPVLIRFFGTKWMMFLAVGIYALFVSTNYWERYYTLVPSAVALGMAIVPLWASMGNYITRMSQKYYEYSHYKEQDEQGPQQRPPRGSHAPYLLVFQAIFYSFFHLSFACAQLPMIYFLNNYLYDLNHTLINVQSCGTKSQGILNGFNKTVLRTLPRSKNLIVVESVLMAVAFLAMLMVLGLCGAAYRPTEEIDLRSVGWGNIFQLPFKHVRDFRLRHLVPFFIYSGFEVLFACTGFALGYGVCSMGLERLAYLLIAYSLGASASSVLGLLGLWLPRSVPLVAGAGLHLLLTLSLFFWAPAPRVLQHSWIFYFVAALWGVGSALNKTGLSTLLGILYEDKERQDFIFTIYHWWQAVAIFVVYLGSSLPMKAKLAVLLVTLVAAAASYLWMEQKLQQGLVPRQPRIPKPQHKVRGYRYLEEDNSDESDMEGEQGQGDCAEDEAPQAGPLGAEPAGPCRKPCPYEQALGGDGPEEQ
As for B1, the binding result was “binds”.
